## Results of single-concentration screens

By UniProt entry, the sequences of proteins in these tests, tags left out. Residues count along the entry.
UniProt Q8IDJ8, 1-583: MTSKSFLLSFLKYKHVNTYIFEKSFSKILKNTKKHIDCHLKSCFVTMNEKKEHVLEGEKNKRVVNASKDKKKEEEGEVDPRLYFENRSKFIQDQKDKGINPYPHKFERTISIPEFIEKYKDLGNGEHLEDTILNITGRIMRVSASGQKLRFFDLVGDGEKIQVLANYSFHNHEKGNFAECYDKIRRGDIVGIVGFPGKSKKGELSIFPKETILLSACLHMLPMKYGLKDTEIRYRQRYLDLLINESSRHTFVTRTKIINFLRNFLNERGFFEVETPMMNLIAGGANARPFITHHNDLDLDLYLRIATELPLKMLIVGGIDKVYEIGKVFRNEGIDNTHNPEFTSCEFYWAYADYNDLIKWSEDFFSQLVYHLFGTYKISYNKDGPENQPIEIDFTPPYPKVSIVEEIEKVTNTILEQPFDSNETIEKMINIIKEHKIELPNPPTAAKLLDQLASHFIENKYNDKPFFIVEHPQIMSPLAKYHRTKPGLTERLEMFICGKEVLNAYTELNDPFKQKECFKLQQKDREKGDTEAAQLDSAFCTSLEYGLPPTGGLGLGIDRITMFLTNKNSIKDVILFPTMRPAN
UniProt Q4DA54, 1-478: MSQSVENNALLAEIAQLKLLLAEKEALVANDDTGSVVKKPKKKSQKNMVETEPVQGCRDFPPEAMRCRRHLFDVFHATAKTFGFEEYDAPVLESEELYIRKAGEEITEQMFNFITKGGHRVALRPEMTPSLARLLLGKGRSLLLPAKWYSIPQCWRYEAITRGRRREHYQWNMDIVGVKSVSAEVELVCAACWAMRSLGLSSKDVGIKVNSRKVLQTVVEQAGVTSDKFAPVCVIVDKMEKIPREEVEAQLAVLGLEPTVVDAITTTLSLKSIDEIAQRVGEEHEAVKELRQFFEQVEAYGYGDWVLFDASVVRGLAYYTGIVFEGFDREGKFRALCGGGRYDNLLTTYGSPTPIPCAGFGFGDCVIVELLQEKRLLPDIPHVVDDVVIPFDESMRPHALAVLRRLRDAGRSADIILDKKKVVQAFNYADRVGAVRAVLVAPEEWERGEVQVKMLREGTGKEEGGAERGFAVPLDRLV
UniProt I6X8D2, whole entry: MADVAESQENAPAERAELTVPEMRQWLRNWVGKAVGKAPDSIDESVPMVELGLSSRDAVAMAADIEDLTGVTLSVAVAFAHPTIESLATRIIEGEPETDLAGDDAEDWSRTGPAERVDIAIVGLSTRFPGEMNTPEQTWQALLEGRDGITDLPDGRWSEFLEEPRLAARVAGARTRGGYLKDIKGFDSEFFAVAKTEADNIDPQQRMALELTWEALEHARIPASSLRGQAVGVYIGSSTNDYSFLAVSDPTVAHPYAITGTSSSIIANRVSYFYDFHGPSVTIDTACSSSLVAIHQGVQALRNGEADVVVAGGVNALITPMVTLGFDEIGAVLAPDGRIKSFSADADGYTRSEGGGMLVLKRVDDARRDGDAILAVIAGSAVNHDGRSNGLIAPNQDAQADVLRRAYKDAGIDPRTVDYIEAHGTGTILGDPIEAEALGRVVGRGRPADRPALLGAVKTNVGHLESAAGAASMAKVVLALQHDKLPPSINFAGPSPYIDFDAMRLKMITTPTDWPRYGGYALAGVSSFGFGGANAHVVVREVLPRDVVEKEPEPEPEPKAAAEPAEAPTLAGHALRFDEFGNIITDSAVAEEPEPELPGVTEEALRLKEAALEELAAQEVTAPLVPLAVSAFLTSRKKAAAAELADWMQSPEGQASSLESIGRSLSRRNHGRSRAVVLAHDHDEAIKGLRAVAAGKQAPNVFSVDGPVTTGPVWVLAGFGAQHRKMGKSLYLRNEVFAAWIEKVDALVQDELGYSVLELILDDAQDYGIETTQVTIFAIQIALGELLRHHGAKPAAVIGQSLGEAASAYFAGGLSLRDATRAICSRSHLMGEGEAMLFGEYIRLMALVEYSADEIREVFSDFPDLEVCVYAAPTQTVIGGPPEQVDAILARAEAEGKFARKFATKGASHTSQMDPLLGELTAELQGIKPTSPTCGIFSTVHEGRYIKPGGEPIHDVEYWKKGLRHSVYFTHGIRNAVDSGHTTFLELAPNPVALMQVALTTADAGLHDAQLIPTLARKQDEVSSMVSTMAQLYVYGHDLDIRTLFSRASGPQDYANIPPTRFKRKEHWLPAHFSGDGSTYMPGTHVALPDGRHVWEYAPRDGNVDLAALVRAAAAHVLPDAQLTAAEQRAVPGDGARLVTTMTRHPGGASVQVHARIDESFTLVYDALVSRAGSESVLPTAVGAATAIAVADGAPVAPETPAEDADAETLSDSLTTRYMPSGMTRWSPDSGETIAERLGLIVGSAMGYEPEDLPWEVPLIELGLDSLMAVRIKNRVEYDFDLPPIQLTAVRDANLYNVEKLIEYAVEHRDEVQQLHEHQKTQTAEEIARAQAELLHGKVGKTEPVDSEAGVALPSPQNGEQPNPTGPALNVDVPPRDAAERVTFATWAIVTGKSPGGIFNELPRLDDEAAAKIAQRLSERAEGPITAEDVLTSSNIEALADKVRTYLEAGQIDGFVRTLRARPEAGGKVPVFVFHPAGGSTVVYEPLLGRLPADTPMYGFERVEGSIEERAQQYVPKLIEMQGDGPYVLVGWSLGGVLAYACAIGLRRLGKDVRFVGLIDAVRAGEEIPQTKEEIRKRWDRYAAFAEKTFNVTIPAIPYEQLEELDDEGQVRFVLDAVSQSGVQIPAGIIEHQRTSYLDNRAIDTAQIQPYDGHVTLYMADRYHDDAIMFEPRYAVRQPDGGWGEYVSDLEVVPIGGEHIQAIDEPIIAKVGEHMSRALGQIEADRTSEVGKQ

Source: ChEMBL document CHEMBL3988442, “University of Dundee, Small-Polar-MMV Screening Library” (2021).

Results are given as percent effect. The record does not define 0% and 100%; most values in the screen are far below 50% and negative numbers occur (in some assays of this library far below -100). The compounds are a random part of those screened. A dash means the value is not listed here; it may have been measured.

A: 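Lysine-tRNA ligase, Plasmodium falciparum 3D7 (UniProt Q8IDJ8). Enzyme assay of the cytosolic lysyl-tRNA synthetase in 384-well plates, read by luminescence. Compounds at 30 µM. Direction is inferred from only a few compounds that gave an IC50; most scored high, so higher reads as stronger inhibition. About 69,000 compounds were tested under these conditions; 0.071% (about 49) showed 50% or more at least once.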
B: 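Histidine-tRNA ligase, Trypanosoma cruzi CL Brener (UniProt Q4DA54). Enzyme assay of histidyl-tRNA synthetase; the read-out is not stated. Concentration: 30 µM. Higher reads as stronger inhibition (inferred: compounds with an IC50 in retests scored well above the rest). Of about 69,000 compounds tested this way, about 31 (0.045%) reached 50% or more in at least one test.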
C: 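Polyketide synthase Pks13, Mycobacterium tuberculosis (UniProt I6X8D2). Enzyme assay of the thioesterase domain of polyketide synthase 13; the read-out is not stated. Tested at 30 µM. Higher reads as stronger inhibition (inferred from which compounds were picked for retests). Size under these conditions: about 67,000 compounds, about 300 of them at 50% or above in at least one test.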

compound,A,B,C
CC(c1ccc(F)c(F)c1)N1CCN(Cc2nccn2C)CC1 (centres undefined),-10.77%,-2.29%,-13.99%
CC(C)c1ccc(NC(=O)Cn2cc(I)cn2)cc1,3.905%,6.098%,8.122%
CCN(Cc1cnn(CC)c1)C(=O)Cn1c(=O)c(C)nc2ccccc21,7.337%,5.882%,-14.06%
CC(C#N)NS(=O)(=O)c1cccc(C(C)C)c1 (centres undefined),-1.171%,-1.19%,-16.87%
CC(OCc1ccccc1)C(=O)NCc1ccc(N(C)C)cc1 (centres undefined),-1.002%,3.79%,-7.112%
Cc1[nH]/c(=N\C(=O)c2csc(NC3CCCC3)n2)sc1C,-0.02367%,2.424%,-21.54%
O=C1NC2(CCN(Cc3nccs3)CC2)CC1c1ccncc1 (centres undefined),1.781%,3.825%,-26.47%
c1ccc(Oc2ccc(CNCC3CNc4ccnn4C3)cn2)cc1 (centres undefined),2.243%,27.01%,-14.14%
N#Cc1cccc(N2CCC(CO)(CCOc3ccccc3)CC2)n1,-2.647%,0.6061%,127.7%
CCC(=O)NCC(CC)Oc1cccc(F)c1 (centres undefined),7.55%,6.627%,-2.336%
CC(C)c1nc2n(n1)CC(NCc1nc(C3CC3)no1)CC2 (centres undefined),1.249%,4.942%,-5.435%
COc1ccccc1-n1nc(C(C)C)nc1Cc1nnc(N)s1,4.354%,13.43%,-16.99%
Cn1ccc(CN2CCN(CC3CC3)CC2)cc1=O,-0.3484%,2.564%,-28.64%
CC(C)Oc1cccc(CN(C)C(=O)Nc2cccn(C)c2=O)c1,-2.771%,4.762%,5.149%
Cc1ccc(CN2CC(C(=O)NCC3CC3)C3(CCOCC3)C2)s1 (centres undefined),3.02%,3.96%,-36.33%
CCn1nc(C)cc1C(=O)NCc1nc(C)cc(C)n1,-0.4474%,1.571%,-24.45%
Cc1cnc(-c2nc(C3CCN(Cc4ccccc4O)CC3)no2)cn1,-0.9823%,3.448%,10.9%
CCS(=O)(=O)Nc1ccc(C(=O)NCCCN2CCCC2)cc1,10.88%,1.087%,-21.6%
O=C(NS(=O)(=O)Cc1ccon1)c1ccsc1,-0.6344%,2.793%,-27%
Cc1ccoc1C(=O)N1C[C@@H]2[C@@H](C1)OCC(=O)N2Cc1cccnc1,-4.161%,-20.65%,-9.461%
O=C(Nc1ccccc1F)C1=NOC2(CCNCC2)C1,7.027%,2.299%,-
CC(C)n1nc2c(cc1=O)CN(Cc1nc(-c3ccco3)no1)CC2,4.4%,10.33%,-13.34%
Cc1nn(C(C)(C)C)c(=O)n1CC(=O)NCC(F)(F)F,-0.9277%,3.784%,-3.012%
O=C(CN1C(=O)CCC1=O)NCC1(O)CCc2ccccc21 (centres undefined),3.48%,-2.424%,-36.47%
CC(C)CN1C(=O)CO[C@@H]2CN(C(=O)N3CCOCC3)C[C@H]21,-0.896%,8.602%,-27.72%
Cn1cnc(S(=O)(=O)N2CCCc3c(F)cc(F)cc32)c1Cl,6.176%,16.67%,-
CNC(=O)[C@H]1C[C@H]2OCC[C@H]2N(CCOc2ccc(Cl)cc2)C1,6.149%,9.783%,11.3%
CCNC(=O)NC1CN(CC(=O)NCc2ccccc2C)C[C@@H]1OC (some centres undefined),8.968%,5.366%,-29%
O=S(=O)(NC1CCOC1)c1ccc(C(F)(F)F)nc1 (centres undefined),2.349%,3.571%,-2.838%
CNC(=O)N1CCc2cc(C(=O)N(C)C)c(NCC3CC3)nc2CC1,0.6335%,7.627%,4.016%
COCCCc1nc(-c2ccc(S(=O)(=O)N3CCCC3)cc2)cs1,5.823%,5.028%,-24.53%
CN(CCc1ccccn1)[C@@H]1CCN(c2cccc(C#N)n2)C[C@H]1O,4.644%,8.743%,-21.33%
c1cncc(CN(Cc2ccc(-n3ccnc3)cc2)CC2CCCO2)c1 (centres undefined),0.2707%,1.22%,0.2068%
COc1ccccc1C(=O)NC(CC(=O)O)c1cccs1 (centres undefined),3%,-1.128%,-4.531%
CCOC(=O)N1CCC(Nc2cc(CC)nc3c(C)c(C)nn23)CC1,4.125%,1.339%,-2.7%
c1csc(N2CCN(c3ncnc4sccc34)CC2)n1,1.842%,15.08%,-0.3819%
CC(=O)N1CCC2(CC1)C(=O)N(CC1CCN(C)CC1)c1ccccc12,5.266%,1.942%,-11.09%
Cc1cc(N(C)C)nc(N2CCn3c(nnc3C(C)C)C2)n1,-5.591%,-1.19%,-17.55%
Cc1ccc(-c2cn[nH]c2C2CCCN(c3cc(N)ncn3)C2)cc1 (centres undefined),2.684%,14.81%,-43.88%
CCN(CC)[C@@H]1CN(C(=O)c2ccnnc2)[C@@H]2CCCO[C@H]12,1.765%,3.681%,-23.95%
Cc1ccc(CNC2CCCc3c2cnn3Cc2ccccc2)s1 (centres undefined),3.389%,4.202%,-17.74%
CCc1nc(-c2ccc(C(=O)N3CCC4(CC3)OCCO4)cc2)no1,5.511%,8.537%,-14.09%
CS(=O)(=O)NCCCN1CCCCC1c1cc2ccccc2[nH]1 (centres undefined),10.89%,1.504%,-45.2%
CN1CCCc2cc(CNC(=O)c3ccncc3)ccc21,0.7259%,-3.383%,-18.05%
CN1C(=O)CC[C@]12CC[C@@H](NC(=O)NCc1cccnc1)CC2,2.663%,3.315%,-0.7233%
COc1ccc(CN2CC[C@H](O)[C@@H]2Cc2cnn(C)c2)cc1,1.59%,17.65%,-0.8138%
CCCN(Cc1ccccc1)Cn1nc(C)c2c(C)onc2c1=O,-0.6984%,0.7519%,-2.283%
CN(Cc1ccc(N(C)C)cc1)C(=O)CS(=O)(=O)c1ccc(Cl)cc1,3.103%,6.897%,-11.51%
Cc1cnn(CC2CN(Cc3nc(C)no3)CCO2)c1 (centres undefined),0.4587%,4.942%,1.181%
Cc1nc(C)n(CCNC2CCN(c3ncnc4c(C)csc34)CC2)n1,1.998%,0.5025%,-32.98%
Cc1occc1C(=O)N1CCc2c(COCC3CC3)cncc2C1,6.648%,11.6%,-19.28%
Cc1cc2cc(C(=O)N3CC[C@H](O)[C@]4(CCCO4)C3)ccc2o1,7.531%,-1.075%,-1.765%
FC(F)(F)CCc1ncnn1-c1ccc2c(c1)OCO2,6.924%,7.143%,-23.77%
CCS(=O)(=O)N1CC[C@@H]2[C@H](CC1)N(Cc1cccnc1)CCS2(=O)=O,0.2315%,7.477%,-30.51%
CC(=O)c1ccc(NCc2cc3n(n2)CCCN(S(C)(=O)=O)C3)nc1,11.14%,-6.122%,-3.35%
Fc1cccc(CN2C[C@@H]3CN(Cc4ccccn4)C[C@@H]3C2)c1,3.932%,6.796%,-27.06%

The first 5 entries again:

{"compound": "CC(c1ccc(F)c(F)c1)N1CCN(Cc2nccn2C)CC1", "stereo": "centres undefined", "A": -10.77, "B": -2.29, "C": -13.99}
{"compound": "CC(C)c1ccc(NC(=O)Cn2cc(I)cn2)cc1", "A": 3.905, "B": 6.098, "C": 8.122}
{"compound": "CCN(Cc1cnn(CC)c1)C(=O)Cn1c(=O)c(C)nc2ccccc21", "A": 7.337, "B": 5.882, "C": -14.06}
{"compound": "CC(C#N)NS(=O)(=O)c1cccc(C(C)C)c1", "stereo": "centres undefined", "A": -1.171, "B": -1.19, "C": -16.87}
{"compound": "CC(OCc1ccccc1)C(=O)NCc1ccc(N(C)C)cc1", "stereo": "centres undefined", "A": -1.002, "B": 3.79, "C": -7.112}